Experimental data published in patent publication US20190284292A1.
No constants are given. Whether binding was seen depends on the method and setting. Some results given as binding are weak or reduced against the parent protein; the word gives no strength.

Amino acid sequences for entries named in this document (tags omitted). Residues count along the entry.
UniProt Q07011, residues 24-186: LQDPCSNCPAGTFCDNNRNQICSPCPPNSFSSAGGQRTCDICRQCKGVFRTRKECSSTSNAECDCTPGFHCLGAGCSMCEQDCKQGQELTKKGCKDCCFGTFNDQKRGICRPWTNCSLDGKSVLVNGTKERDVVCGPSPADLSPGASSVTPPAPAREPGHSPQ

Target: 4-1BB recombinant protein (UniProt Q07011)
Assay: precipitation of protease digests by the antibody, LC/MS/MS

binding: binds
B1: ZW106 (antibody, V domains shown)
VH: QVQLQQPESELVRPGGSVKLSCKASGYTFTSYWMDWVKQRHGQGLEWIGNIYPDSGGTNYAEKFKSKATLTVDTSSSTAYMHLSSLTSEDSAVYYCTREEALGGYYELTYWGQGTLVTVSA
VL: DIVLTQSPASLPVSLGQRATISCRASQSVSTSSYSYMHWYQQKPGQPPKLLIKYASNLESGVPARFSGSGSGTDFTLNIHPVEEEDTATYYCQHSWEIPYTFGGGTKLEIE
